# Literature values, collected in patent publication US20250375427A1 (Biohaven Therapeutics Ltd., priority 2022, published 2025).
# Details: cited from earlier work
smiles,measurement,setting,value
"Nc1nc2ccc(OC(F)(F)F)cc2s1 [Riluzole, riluzole]",bioavailability,riluzole tablets,approximately 60%
same,food effect on absorption,taken with meals,reduced absorption when it is taken with meals
